Experimental data from patent publication US20080254027A1 (published 2008).
No constants are given. Whether binding was seen depends on the method and setting. A result given as binding can be weak or reduced; the word gives no strength.

Target: cynomolgus monkey CD5 (cynomolgus monkey)
Test: flow cytometry, labeled antibody on cynomolgus monkey blood leukocytes/PBMCs

binding: binds
B1: murine anti-CD5 antibody 5D7 (antibody, V domains shown)
VH: QVTLKESGPGILKPSQTLSLTCSFSGFSLSTSGMGVGWIRQPSGKGLEWLAHIWWDDDVYYNPSLKNQLTISKDASRDQVFLKITNLDTADTATYYCVRRRATGTGFDYWGQGTTLTVSS
VL: NIVMTQSHKFMSTSVGDRVSIACKASQDVGTAVAWYQQKPGQSPKLLIYWTSTRHTGVPDRFTGSGSGTDFTLTITNVQSEDLADYFCHQYNSYNTFGSGTRLELK
